# Results published in PMC7994375.
# Amino acid sequences for entries named in this document (tags omitted). A change or cut given only in a name is not applied to a line headed by its entry.
# UniProt P32245: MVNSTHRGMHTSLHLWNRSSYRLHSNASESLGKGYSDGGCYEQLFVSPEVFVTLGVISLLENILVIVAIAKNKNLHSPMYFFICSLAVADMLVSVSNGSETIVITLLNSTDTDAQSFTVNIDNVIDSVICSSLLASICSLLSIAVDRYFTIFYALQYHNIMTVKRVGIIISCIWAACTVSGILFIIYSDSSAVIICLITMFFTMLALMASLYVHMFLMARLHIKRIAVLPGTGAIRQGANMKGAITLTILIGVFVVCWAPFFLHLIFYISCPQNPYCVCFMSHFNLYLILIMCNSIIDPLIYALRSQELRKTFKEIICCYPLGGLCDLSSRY
# UniProt P49407: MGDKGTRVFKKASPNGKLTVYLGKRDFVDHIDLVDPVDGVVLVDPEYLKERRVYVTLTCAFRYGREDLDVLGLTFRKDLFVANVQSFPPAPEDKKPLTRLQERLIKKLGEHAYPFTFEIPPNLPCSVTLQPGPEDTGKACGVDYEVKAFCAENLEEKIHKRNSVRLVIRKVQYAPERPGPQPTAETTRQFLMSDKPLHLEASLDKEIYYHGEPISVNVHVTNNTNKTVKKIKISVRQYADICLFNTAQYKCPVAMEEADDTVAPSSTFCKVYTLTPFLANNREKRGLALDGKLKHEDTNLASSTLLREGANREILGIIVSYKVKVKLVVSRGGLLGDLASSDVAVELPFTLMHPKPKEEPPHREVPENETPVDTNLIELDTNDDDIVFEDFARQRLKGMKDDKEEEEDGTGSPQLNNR
# No constants are given. Whether binding was seen depends on the method and setting. Binding seen in cells or lysates may run through a third protein. Some entries that bind do so weakly or less than the wild type.
# Target: Human Melanocortin-4 Receptor (MC4R) WT, NanoBiT constructs (MC4R WT-LgBiT; MC4R WT-SmBiT) (human) (UniProt P32245)
# Experiment: split reporter; NanoBiT homodimerisation in live HEK293 cells: MC4R WT-SmBiT with MC4R WT-LgBiT or MC4R mutant-LgBiT, 50 ng/well each; run as the coupling assay; AUC against HaloTag-SmBiT baseline, WT:WT = 100%
row,Substance,binding
1,Human MC4R I186V-C-LgBiT (from UniProt P32245 1-332) (receptor),binds
2,"Human Melanocortin-4 Receptor (MC4R) WT, NanoBiT constructs (MC4R WT-LgBiT; MC4R WT-SmBiT) (from UniProt P32245 1-332)",binds
3,Human MC4R R236C-C-LgBiT (from UniProt P32245 1-332) (receptor),binds
4,Human MC4R S191T-C-LgBiT (from UniProt P32245 1-332) (receptor),binds
5,Human MC4R I251L-C-LgBiT (from UniProt P32245 1-332) (receptor),binds
6,Human MC4R S295P-C-LgBiT (from UniProt P32245 1-332) (receptor),binds
7,Human MC4R M200V-C-LgBiT (from UniProt P32245 1-332) (receptor),binds
8,Human MC4R R305S-C-LgBiT (from UniProt P32245 1-332) (receptor),binds
9,Human MC4R T53I-C-LgBiT (from UniProt P32245 1-332) (receptor),binds

# Target: Human Melanocortin-4 Receptor (MC4R) WT, NanoBiT constructs (MC4R WT-LgBiT; MC4R WT-SmBiT) (human) (UniProt P32245)
# Experiment: split reporter; stable HEK293 line with MC4R WT-LgBiT and SmBiT-β-arrestin-2 (BiBiT vector); MSH-related peptides and other ligands at 0.1 nM, 10 nM and 1 uM; AUC as % of α-MSH activity
row,Substance,binding
1,Human N-SmBiT-β-arrestin-2 (from UniProt P32121 1-409),binds

# Target: Human Melanocortin-4 Receptor (MC4R) WT, NanoBiT constructs (MC4R WT-LgBiT; MC4R WT-SmBiT) (human) (UniProt P32245)
# Experiment: split reporter; NanoBiT in live HEK293 cells: MC4R-LgBiT (WT or mutant) with SmBiT-β-arrestin-1, SmBiT-β-arrestin-2 or Gαs-SmBiT, 50 ng/well each; 37°C, Opti-MEM; stimulated with 1 uM NDP-α-MSH; AUC over 45 min against HaloTag-SmBiT baseline, WT = 100%
row,Substance,binding
1,Human N-SmBiT-β-arrestin-1 (from UniProt P49407 1-418),binds
2,Human N-SmBiT-β-arrestin-2 (from UniProt P32121 1-409),binds
